# Data: the supplement of paper PMC8728848
# Some of the results follow.
# Legend:
# Test in all cases: glycan array binding signal (z-score within array); higher = stronger binding
# Details in all cases: glycan notation: IUPAC condensed, linker removed
# Gal3S6S(b1-4)GlcNAc = biological target: Gal3S6S(b1-4)GlcNAc
# Procedure, shortened: (§1)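 The Consortium for Functional Glycomics database supplied 3228 glycan arrays, of which those lacking an available protein sequence were dropped. The binding signal, a within-array Z-score, was averaged across arrays of the same protein sequence and across linkers. Negative scores can be read as non-binding.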
# Gal3S6S(b1-4)GlcNAc6S = biological target: Gal3S6S(b1-4)GlcNAc6S
# Procedure, shortened: as §1
# Gal4S(b1-4)GlcNAc = biological target: Gal4S(b1-4)GlcNAc
# Procedure, shortened: as §1
# Gal4S6S(b1-4)GlcNAc = biological target: Gal4S6S(b1-4)GlcNAc
# Procedure, shortened: as §1
# Gal6P(b1-4)GlcNAc = biological target: Gal6P(b1-4)GlcNAc
# Procedure, shortened: as §1
# Gal6S(b1-3)GlcNAc = biological target: Gal6S(b1-3)GlcNAc
# Procedure, shortened: as §1
# Gal6S(b1-3)GlcNAc6S = biological target: Gal6S(b1-3)GlcNAc6S
# Procedure, shortened: as §1
# Gal6S(b1-4)Glc = biological target: Gal6S(b1-4)Glc
# Procedure, shortened: as §1
# Gal6S(b1-4)Glc6S = biological target: Gal6S(b1-4)Glc6S
# Procedure, shortened: as §1
# Gal6S(b1-4)GlcNAc = biological target: Gal6S(b1-4)GlcNAc
# Procedure, shortened: as §1
# Gal6S(b1-4)GlcNAc6S = biological target: Gal6S(b1-4)GlcNAc6S
# Procedure, shortened: as §1
# GalNAc(a1-3)Gal = biological target: GalNAc(a1-3)Gal
# Procedure, shortened: as §1
# GalNAc(a1-3)GalNAc = biological target: GalNAc(a1-3)GalNAc
# Procedure, shortened: as §1
# [1] = biological target: GalNAc(a1-3)GalNAc(a1-3)Gal(a1-4)Gal(b1-4)GlcNAc
# Procedure, shortened: as §1
# [2] = biological target: GalNAc(a1-3)GalNAc(b1-3)Gal(a1-4)Gal(b1-4)Glc
# Procedure, shortened: as §1
# GalNAc(b1-3)Gal = biological target: GalNAc(b1-3)Gal
# Procedure, shortened: as §1
# [3] = biological target: GalNAc(b1-3)Gal(a1-4)Gal(b1-4)GlcNAc
# Procedure, shortened: as §1
# [4] = biological target: GalNAc(b1-3)Gal(a1-4)Gal(b1-4)GlcNAc(b1-3)Gal(b1-4)Glc
# Procedure, shortened: as §1
# [5] = biological target: GalNAc(b1-3)Gal(a1-6)Gal(b1-4)Glc
# Procedure, shortened: as §1
# GalNAc(b1-3)GalNAc = biological target: GalNAc(b1-3)GalNAc
# Procedure, shortened: as §1
# GalNAc(b1-3)GlcNAc = biological target: GalNAc(b1-3)GlcNAc
# Procedure, shortened: as §1
# GalNAc(b1-4)Gal(b1-4)Glc = biological target: GalNAc(b1-4)Gal(b1-4)Glc
# Procedure, shortened: as §1
# GalNAc(b1-4)GlcNAc = biological target: GalNAc(b1-4)GlcNAc
# Procedure, shortened: as §1
# [6] = biological target: GalNAc(b1-4)GlcNAc(b1-2)Man
# Procedure, shortened: as §1
# [7] = biological target: GalNAc(b1-4)GlcNAc(b1-2)Man(a1-3)[GalNAc(b1-4)GlcNAc(b1-2)Man(a1-6)]Man(b1-4)GlcNAc(b1-4)GlcNAc
# Procedure, shortened: as §1
# [8] = biological target: GalNAc(b1-4)GlcNAc(b1-3)GalNAc(b1-4)GlcNAc
# Procedure, shortened: as §1
# GalNAc(b1-4)GlcNAc6S = biological target: GalNAc(b1-4)GlcNAc6S
# Procedure, shortened: as §1
# GalNAc(b1-6)GalNAc = biological target: GalNAc(b1-6)GalNAc
# Procedure, shortened: as §1
# GalNAc3S(b1-4)GlcNAc = biological target: GalNAc3S(b1-4)GlcNAc
# Procedure, shortened: as §1
# GalNAc3S(b1-4)GlcNAc3S = biological target: GalNAc3S(b1-4)GlcNAc3S
# Procedure, shortened: as §1
# [9] = biological target: GalNAc3S(b1-4)[Fuc(a1-3)]GlcNAc
# Procedure, shortened: as §1
# GalNAc4S6S(b1-4)GlcNAc = biological target: GalNAc4S6S(b1-4)GlcNAc
# Procedure, shortened: as §1
# GalNAc6S(b1-4)GlcNAc = biological target: GalNAc6S(b1-4)GlcNAc
# Procedure, shortened: as §1
# Glc(a1-4)Glc = biological target: Glc(a1-4)Glc
# Procedure, shortened: as §1
# [10] = biological target: Glc(a1-4)Glc(a1-4)Glc(a1-4)Glc
# Procedure, shortened: as §1
# Glc(a1-6)Glc(a1-6)Glc = biological target: Glc(a1-6)Glc(a1-6)Glc
# Procedure, shortened: as §1
# [11] = biological target: Glc(a1-6)Glc(a1-6)Glc(a1-6)Glc
# Procedure, shortened: as §1
# Glc(b1-4)Glc = biological target: Glc(b1-4)Glc
# Procedure, shortened: as §1
binder,measurement,setting,value
"SspB A3vp1 (Streptococcus gordonii), Q54186 (protein) MTNEADYQAKLAAYQTELARVQKANADAKATYEKAVEDNKAKNAAIKAENEEIKQRNAVAKTDYEAKLAKYEADLAKYKKEFAAYTAALAEAESKKKQDGYLSEPRSQSLNFKSEPNAIRTIDSSVHQYGQQELDALVKSWGISPTNPDRKKSRAYSYFNAINSNNTYAKLVLEKDKPVDVTYTGLKNSSFNGKKISKVVYTYTLKETGFNDGTKMTMFASSDPTVTAWYNDYFTSTNINVKVKFYDEEGQLMNLTGGLVNFSSLNRGNGSGAIDKDAIESVRNFNGRYIPISGSSIKIHENNSAYADSSNAEKSLGARWNTSEWDTTSSPNNWYGAIVGEITQSEISFNMASSKSGNIWFAFNSNINAIGVPTKPVAPTAPTQPMYETEKPLEPAPVAPSYENEPTPPVKTPDQPEPSKPAAALEHHHHHH",glycan array binding signal (z-score),Gal3S6S(b1-4)GlcNAc,-0.52
same,glycan array binding signal (z-score),Gal3S6S(b1-4)GlcNAc6S,-0.625
same,glycan array binding signal (z-score),Gal4S(b1-4)GlcNAc,0.061
same,glycan array binding signal (z-score),Gal4S6S(b1-4)GlcNAc,-1.45
same,glycan array binding signal (z-score),Gal6P(b1-4)GlcNAc,-0.815
same,glycan array binding signal (z-score),Gal6S(b1-3)GlcNAc,-0.505
same,glycan array binding signal (z-score),Gal6S(b1-3)GlcNAc6S,-0.645
same,glycan array binding signal (z-score),Gal6S(b1-4)Glc,-0.142
same,glycan array binding signal (z-score),Gal6S(b1-4)Glc6S,-0.029
same,glycan array binding signal (z-score),Gal6S(b1-4)GlcNAc,-0.624
same,glycan array binding signal (z-score),Gal6S(b1-4)GlcNAc6S,-0.199
same,glycan array binding signal (z-score),GalNAc(a1-3)Gal,-0.288
same,glycan array binding signal (z-score),GalNAc(a1-3)GalNAc,-1.09
same,glycan array binding signal (z-score),[1],-1.07
same,glycan array binding signal (z-score),[2],-0.593
same,glycan array binding signal (z-score),GalNAc(b1-3)Gal,0.001
same,glycan array binding signal (z-score),[3],1.54
same,glycan array binding signal (z-score),[4],-0.702
same,glycan array binding signal (z-score),[5],0.652
same,glycan array binding signal (z-score),GalNAc(b1-3)GalNAc,-0.708
same,glycan array binding signal (z-score),GalNAc(b1-3)GlcNAc,-0.204
same,glycan array binding signal (z-score),GalNAc(b1-4)Gal(b1-4)Glc,0.071
same,glycan array binding signal (z-score),GalNAc(b1-4)GlcNAc,-0.021
same,glycan array binding signal (z-score),[6],-0.385
same,glycan array binding signal (z-score),[7],-0.48
same,glycan array binding signal (z-score),[8],1.28
same,glycan array binding signal (z-score),GalNAc(b1-4)GlcNAc6S,-0.104
same,glycan array binding signal (z-score),GalNAc(b1-6)GalNAc,0.292
same,glycan array binding signal (z-score),GalNAc3S(b1-4)GlcNAc,-1.32
same,glycan array binding signal (z-score),GalNAc3S(b1-4)GlcNAc3S,0.461
same,glycan array binding signal (z-score),[9],-0.301
same,glycan array binding signal (z-score),GalNAc4S6S(b1-4)GlcNAc,-0.729
same,glycan array binding signal (z-score),GalNAc6S(b1-4)GlcNAc,-0.623
same,glycan array binding signal (z-score),Glc(a1-4)Glc,0.194
same,glycan array binding signal (z-score),[10],-0.964
same,glycan array binding signal (z-score),Glc(a1-6)Glc(a1-6)Glc,-0.421
same,glycan array binding signal (z-score),[11],0.88
same,glycan array binding signal (z-score),Glc(b1-4)Glc,-0.759

# A section from the list above:
binder,measurement,setting,value
"SspB A3vp1 (Streptococcus gordonii), Q54186 (protein) MTNEADYQAKLAAYQTELARVQKANADAKATYEKAVEDNKAKNAAIKAENEEIKQRNAVAKTDYEAKLAKYEADLAKYKKEFAAYTAALAEAESKKKQDGYLSEPRSQSLNFKSEPNAIRTIDSSVHQYGQQELDALVKSWGISPTNPDRKKSRAYSYFNAINSNNTYAKLVLEKDKPVDVTYTGLKNSSFNGKKISKVVYTYTLKETGFNDGTKMTMFASSDPTVTAWYNDYFTSTNINVKVKFYDEEGQLMNLTGGLVNFSSLNRGNGSGAIDKDAIESVRNFNGRYIPISGSSIKIHENNSAYADSSNAEKSLGARWNTSEWDTTSSPNNWYGAIVGEITQSEISFNMASSKSGNIWFAFNSNINAIGVPTKPVAPTAPTQPMYETEKPLEPAPVAPSYENEPTPPVKTPDQPEPSKPAAALEHHHHHH",glycan array binding signal (z-score),GalNAc(b1-3)GlcNAc,-0.204
same,glycan array binding signal (z-score),GalNAc(b1-4)Gal(b1-4)Glc,0.071
